Experimental data: PubChem BioAssay AID1347076 (National Center for Advancing Translational Sciences (NCATS), 2019)
About 13,000 (3.2%) of roughly 400,000 compounds were called active. This list was built around the results that the source calls inconclusive (neither active nor inactive); the mix of calls is not that of the screen. The call rests on the fitted dose curve; in most records, active means well fitted cell-killing curve with a large enough effect; inconclusive means small, poorly fitted or top-dose-only effect, or effect the other way; inactive means flat fitted curve, though single readings scatter. Potencies of inconclusive entries are doubtful fits and often do not repeat.

Assay: qHTS assay for MDR1-selective chemotherapeutics: Primary screen using the drug-selected MDR subline cells KB-V1; further: nearly all actives have a fitted effect of over 60% in size
Settings: KB-V1 MDR cells viability, CellTiter-Glo, 72 h; activity change, negative = cytotoxicity: at 46.1 µM (top of the series)
Method in brief: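 Cytotoxicity via CellTiter-Glo luminescence after 72 h compound exposure at 37 degrees C. Cells: drug-selected KB-V1 line, DMEM phenol-red free plus 10% FBS. Compounds tested at multiple concentrations; normalized data fitted to concentration-effect curves.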
On the % scale 0 is the no-effect control and ±100 the full control effect; potency means the concentration at half of the fitted maximal effect.

**Q.** For `Cc1cc(C)n(CCC(=O)N/N=C/c2ccc(Cl)c([N+](=O)[O-])c2)n1`, which Potency is on record?
**A.** inconclusive: 9.2 µM [rising, partial curve, poor fit]

**Q.** For `CCOC(=O)c1nc(-c2ccc(OC)c(OC)c2)no1`, which Potency is on record?
**A.** inconclusive: 18.4 µM [rising, partial curve]

**Q.** With `COc1ccc(NC(=O)CN2C(=O)CSc3ccc(S(=O)(=O)N4CCCC4)cc32)cc1OC` as the compound, how does the Potency read?
**A.** inactive

**Q.** Which Potency does the source give for `Cc1cccc(N2CCN(C(=O)CCNS(=O)(=O)c3cccs3)CC2C)c1` (stereo not given) here?
**A.** inconclusive: 18.4 µM [cytotoxic, partial curve]

**Q.** Which Potency does the source give for `CCN(CCCNC(=O)c1ccc(N2CCCC2=O)cc1)c1cccc(C)c1` here?
**A.** inconclusive: 29.1 µM [cytotoxic, single point]

**Q.** With `O=C(COC(=O)c1c2c(nc3ccccc13)CCCC2)Nc1ccc2c(c1)OCO2` as the compound, how does the Potency read?
**A.** inconclusive: 29.1 µM [cytotoxic, single point]

**Q.** For `COc1ccccc1NC(=O)c1ccc([N+](=O)[O-])o1`, which “activity change, negative = cytotoxicity” value is on record?
**A.** inactive: -6.83%

**Q.** Which activity change, negative = cytotoxicity does the source give for `Cc1cccc(C)c1OCC(O)CNC(C)(C)C` (stereo not given) here?
**A.** inconclusive: -93.1%

**Q.** With `Cc1ccc(Nc2nc3ccccc3n3nnnc23)cc1` as the compound, how does the “activity change, negative = cytotoxicity” value read?
**A.** inactive: -7.45%

**Q.** For `Cn1cnc2nc(Cl)nc(Cl)c21`, which Potency is on record?
**A.** active: 3.66 µM

**Q.** For `O=C(Nc1ccccc1)OCCN1CCOCC1`, which “activity change, negative = cytotoxicity” value is on record?
**A.** inactive: 13.3%

**Q.** With `O=C1NCCCc2c1oc1cc(Br)c(O)c(Br)c21` as the compound, how does the Potency read?
**A.** inconclusive: 25.9 µM [cytotoxic, partial curve, poor fit]

**Q.** For `O=C(Nc1cccc(C(F)(F)F)c1)Nc1ccc(N2CCCC2)c(S(=O)(=O)Nc2ccccc2Cl)c1`, which Potency is on record?
**A.** active: 8.2 µM

**Q.** For `CCOC(=O)c1ccccc1NC(=O)CSc1nnc(COc2ccccc2)n1CC`, which Potency is on record?
**A.** inconclusive: 11.2 µM [cytotoxic, partial curve, poor fit]

**Q.** With `O=C(CNc1cccc(S(=O)(=O)N2CCCC2)c1)Nc1ccc(F)c(F)c1` as the compound, how does the Potency read?
**A.** inconclusive: 20.6 µM [cytotoxic, partial curve]

**Q.** With `COc1ccc(C(C(=O)NC(C)(C)C)n2c(=O)c(-c3ccccc3)nc3ccccc32)cc1` (stereo not given) as the compound, how does the Potency read?
**A.** inconclusive: 5.17 µM [cytotoxic, partial curve, poor fit]

**Q.** For `CCc1c(C)nc2cc(-c3ccc(OC)c(OC)c3)nn2c1N1CCCC1`, which Potency is on record?
**A.** inconclusive: 2.91 µM [cytotoxic, partial curve, poor fit]

**Q.** For `Cc1ccc2nc(-c3ccc(NC(=O)c4cccnc4)cc3)oc2c1`, which Potency is on record?
**A.** inconclusive: 16.4 µM [cytotoxic, single point]

**Q.** With `CCOC(=O)C1=C(c2ccccc2)NC(=O)NC1c1cc(OCC)c(O)c([N+](=O)[O-])c1` (stereo not given) as the compound, how does the Potency read?
**A.** inconclusive: 23.1 µM [rising, partial curve, poor fit]

**Q.** With `Cc1onc(-c2ccccc2Cl)c1C(=O)N(Cc1nc(-c2ccccc2)no1)C1CCCCC1` as the compound, how does the Potency read?
**A.** active: 18.4 µM

**Q.** For `CCN(C(=O)CSc1cc(-c2ccccc2)c2ccc(OC)cc2n1)C1CCS(=O)(=O)C1` (stereo not given), which “activity change, negative = cytotoxicity” value is on record?
**A.** inactive: 2.92%

**Q.** Which Potency does the source give for `CC1Cc2nc(SCC(=O)N3CCc4ccccc43)n(C)c(=O)c2S1` (stereo not given) here?
**A.** active: 2.59 µM

**Q.** For `CCOc1ccc(-n2ccnc(SCC(=O)Nc3ccc(CC)cc3)c2=O)cc1`, which Potency is on record?
**A.** inconclusive: 29.1 µM [cytotoxic, single point]

**Q.** For `Cc1cccc2nc3c(nc12)-c1ccccc1C3=O`, which Potency is on record?
**A.** inconclusive: 23.1 µM [cytotoxic, single point]

**Q.** For `Cc1cccc(C)c1NC(=O)Cn1c(=O)n(CCC(=O)NCc2ccccc2Cl)c(=O)c2sccc21`, which Potency is on record?
**A.** inconclusive: 14.6 µM [rising, single point]

**Q.** For `CCCCn1c(SCC(=O)N2c3ccccc3Sc3ccccc32)nc2c1c(=O)n(C)c(=O)n2C`, which Potency is on record?
**A.** active: 14.6 µM

**Q.** With `COc1ccc(CNC(=O)Cn2c(=O)n(CCC(=O)N3CCCCC3)c(=O)c3sccc32)cc1` as the compound, how does the “activity change, negative = cytotoxicity” value read?
**A.** inactive: 0.704%

**Q.** Which Potency does the source give for `CCCCCNC(=O)C(C1CC1)n1c(=O)c(-c2ccccc2)nc2ccccc21` (stereo not given) here?
**A.** inconclusive: 8.2 µM [cytotoxic, partial curve]

**Q.** Which Potency does the source give for `COc1ccc(C2NC(=O)c3ccccc3O2)cc1` (stereo not given) here?
**A.** inconclusive: 29.1 µM [rising, single point]

**Q.** With `Cc1ccc(C)c(N2CCN(S(=O)(=O)c3ccc4c(c3)oc(=O)n4C)CC2)c1` as the compound, how does the Potency read?
**A.** active: 14.6 µM

**Q.** With `Cc1nn(-c2ccccc2)nc1CNC(=O)c1ncoc1-c1ccccc1` as the compound, how does the “activity change, negative = cytotoxicity” value read?
**A.** inactive: -28.6%

**Q.** Which activity change, negative = cytotoxicity does the source give for `COc1cccc(CN2CCN(Cc3cc(OC)c(OC)c(OC)c3)CC2)c1OC` here?
**A.** inconclusive: 1.64%

**Q.** With `COc1ccccc1NC(=O)N1CCC(c2nc3cc(C)c(C)cc3[nH]2)CC1` as the compound, how does the Potency read?
**A.** active: 9.2 µM

**Q.** For `CC(C)NS(=O)(=O)c1ccc(NC(=O)C(C)OC(=O)CCC(=O)c2cccs2)cc1` (stereo not given), which Potency is on record?
**A.** inconclusive: 0.231 µM [cytotoxic, full curve]

**Q.** With `CC(C)C[C@H](NC(=O)N1CCn2c1nc1ccccc12)C(=O)NCc1ccc2c(c1)OCO2` as the compound, how does the Potency read?
**A.** inconclusive: 32.6 µM [cytotoxic, partial curve, poor fit]

**Q.** Which “activity change, negative = cytotoxicity” value does the source give for `CN1CCN(c2cc3c(c4c2[nH]c2ccccc24)C(=O)CC(C)(C)C3)CC1` here?
**A.** inactive: -27.8%

**Q.** For `O=C(CCN1C(=O)/C(=C\C=C\c2ccccc2)SC1=S)Nc1cccc(C(=O)O)c1`, which activity change, negative = cytotoxicity is on record?
**A.** inconclusive: -3.19%

**Q.** For `Cc1ccsc1CN(C)C(=O)c1cc(S(=O)(=O)N2CCOCC2)ccc1N1CCCC1`, which Potency is on record?
**A.** inconclusive: 18.4 µM [cytotoxic, single point]

**Q.** With `O=C(COC(=O)c1ccccc1NCCO)NCCC1=CCCCC1` as the compound, how does the “activity change, negative = cytotoxicity” value read?
**A.** inactive: -17.7%

**Q.** For `COc1ccc(C)cc1-n1c(SCC(=O)Nc2cc(C)on2)nc2sc(C)c(C)c2c1=O`, which “activity change, negative = cytotoxicity” value is on record?
**A.** inactive: 9.38%

**Q.** For `O=C(/C=C/c1ccc(F)cc1)N1CCN(Cc2ccccc2)CC1`, which “activity change, negative = cytotoxicity” value is on record?
**A.** inactive: -11.8%

**Q.** For `CCOCC(=O)Nc1c(C(=O)Nc2ccccc2OC)oc2ccccc12`, which Potency is on record?
**A.** active: 1.84 µM

**Q.** Which Potency does the source give for `CCc1cccc(NC(=O)CN(c2ccc(C)cc2)S(=O)(=O)c2c(C)noc2C)c1` here?
**A.** inconclusive: 16.4 µM [cytotoxic, single point]

**Q.** With `Cn1nc(C(F)(F)F)c(C(=O)Nc2ccc(F)cc2F)c1Sc1ccc(C(F)(F)F)cc1` as the compound, how does the Potency read?
**A.** inconclusive: 23.1 µM [cytotoxic, partial curve]

**Q.** With `COc1cc(Cl)c(CC(=O)c2c[nH]c3ccccc23)cc1OC` as the compound, how does the Potency read?
**A.** inconclusive: 7.31 µM [cytotoxic, partial curve]
